The experiment addresses cyno Claudin 6 (cyno). Briefly: flow cytometry, engineered cells expressing cyno CLDN6. On the technique in general: A flow cytometer gives signals particle by particle.

No constants are given. Whether binding was seen depends on the method and setting. Binding calls can cover weak binding; strength is not graded here.

B1: 97-C10E1-2-P1.z5 (antibody, V domains shown)
VH: QVQLVQSGAEVKKPGASVKVSCKASGYAFTGYTMNWVRQAPGQGLEWIGLSNPYNAGTIYNQKFKGRVTMTVDKSTSTVYMELSSLRSEDTAVYYCARNYYYGSSYAYYYAMDYWGQGTTVTVSS
VL: DIVVTQSPSSLSTSVGDRVTITCRSSTGAVTTSNYANWVQEKPGKAFKGLIGGTNNRAPGVPARFSGSLSGDDAALTISSAQPEDFATYFCALWYSNHWVFGGGTKVEIK
notes: also called candidate antibody
B1: the binding result is “binds”.

Source of the values: patent US20240317851A1 (LANOVA MEDICINES, published 2024).
